# Results as given in the supplement of paper PMC4604168 (melanoma cell lines).
# The list shows a part of the results. Single values are uncertain, as repeats are few or missing.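 Imaging used 1,536-well plates; nuclei positive for cleaved PARP by antibody were divided by total DNA-stained nuclei to yield the apoptosis fraction. Doses for screening kept most cells viable, and cell lines differ markedly in resting and induced cleaved-PARP levels.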
# Key:
# Experiment in all cases: cleaved PARP positive nuclei fraction relative to DMSO control; melanoma cells; higher = more apoptosis
# Conditions in all cases: library dose: low library concentration; 72 h
# [1] = test system: 501Mel
# [2] = test system: A101D
# [3] = test system: A2058
# [4] = test system: A375
# [5] = test system: C32
# [6] = test system: CBRC008 (line from a melanoma biopsy)
# [7] = test system: CBRC013 (line from a melanoma biopsy)
# [8] = test system: CBRC014 (line from a melanoma biopsy)
# [9] = test system: CBRC016 (line from a melanoma biopsy)
# [10] = test system: CBRC017 (line from a melanoma biopsy)
# [11] = test system: COLO792
# [12] = test system: COLO800
# [13] = test system: COLO829
# [14] = test system: G361
# [15] = test system: IPC-298
# [16] = test system: IST-MEL1
# [17] = test system: LB2518-MEL
# [18] = test system: LOXIMVI
# [19] = test system: MEL-HO
# [20] = test system: CBRC034 (line from a melanoma biopsy)
SMILES,cleaved PARP positive nuclei fraction [1],cleaved PARP positive nuclei fraction [2],cleaved PARP positive nuclei fraction [3],cleaved PARP positive nuclei fraction [4],cleaved PARP positive nuclei fraction [5],cleaved PARP positive nuclei fraction [6],cleaved PARP positive nuclei fraction [7],cleaved PARP positive nuclei fraction [8],cleaved PARP positive nuclei fraction [9],cleaved PARP positive nuclei fraction [10],cleaved PARP positive nuclei fraction [11],cleaved PARP positive nuclei fraction [12],cleaved PARP positive nuclei fraction [13],cleaved PARP positive nuclei fraction [14],cleaved PARP positive nuclei fraction [15],cleaved PARP positive nuclei fraction [16],cleaved PARP positive nuclei fraction [17],cleaved PARP positive nuclei fraction [18],cleaved PARP positive nuclei fraction [19],cleaved PARP positive nuclei fraction [20]
"CC[C@]1(O)C[C@H]2CN(CCc3c([nH]c4ccccc34)[C@@](C(=O)OC)(c3cc4c(cc3OC)N(C=O)[C@H]3[C@@](O)(C(=O)OC)[C@H](OC(C)=O)[C@]5(CC)C=CCN6CC[C@]43[C@@H]65)C2)C1 [vincristine] + NC(=O)Nc1cc(-c2cccc(F)c2)sc1C(=O)N[C@H]1CCCNC1 [AZD7762] (first compound 0.0001 µM, partner dose 0.02 µM)",47.5%,122%,1200%,1030%,320%,182%,138%,111%,171%,121%,132%,75.8%,94.4%,72.1%,61.4%,126%,30.5%,130%,30.7%,
"Cc1ccc(Nc2nccc(N(C)c3ccc4c(C)n(C)nc4c3)n2)cc1S(N)(=O)=O [Pazopanib] + O=C(CCCCCCC(=O)Nc1ccccc1)NO [vorinostat] (first compound 0.4 µM, partner dose 0.08 µM)",73.8%,44.4%,85.3%,67.9%,47.6%,138%,83%,97%,104%,98%,70.9%,153%,110%,75.4%,54.4%,98.2%,74.8%,118%,150%,
"Cc1cc(Nc2cc(N3CCN(C)CC3)nc(Sc3ccc(NC(=O)C4CC4)cc3)n2)n[nH]1 [Tozasertib] + Cc1ccc(NC(=O)c2cccc(N(C)C)c2)cc1NC(=O)c1ccc(O)cc1 [ZM336372] (first compound 0.006 µM, partner dose 2 µM)",108%,40.2%,217%,214%,203%,161%,99.8%,110%,159%,102%,76.3%,182%,73.5%,52.4%,57%,204%,57.7%,78.2%,278%,
"Cc1cc(Nc2cc(N3CCN(C)CC3)nc(Sc3ccc(NC(=O)C4CC4)cc3)n2)n[nH]1 [Tozasertib] + COc1cc(Nc2ncc(F)c(Nc3ccc4c(n3)NC(=O)C(C)(C)O4)n2)cc(OC)c1OC [Tamatinib] (first compound 0.006 µM, partner dose 0.4 µM)",277%,26.1%,54.8%,212%,82.1%,252%,164%,88.5%,102%,115%,312%,67.9%,163%,177%,81.7%,113%,116%,99.6%,155%,
"Cc1ccc(Nc2nccc(N(C)c3ccc4c(C)n(C)nc4c3)n2)cc1S(N)(=O)=O [Pazopanib] + NC(=O)Nc1cc(-c2cccc(F)c2)sc1C(=O)N[C@H]1CCCNC1 [AZD7762] (first compound 0.4 µM, partner dose 0.02 µM)",83%,147%,91.6%,357%,104%,73.5%,95.9%,123%,99%,91.5%,157%,136%,72.6%,125%,35.9%,126%,176%,54%,117%,
"Cc1cc(Nc2cc(N3CCN(C)CC3)nc(Sc3ccc(NC(=O)C4CC4)cc3)n2)n[nH]1 [Tozasertib] + C[C@@H]1CCN(C(=O)CC#N)C[C@@H]1N(C)c1ncnc2[nH]ccc12 [CP690550] (first compound 0.006 µM, partner dose 1 µM)",95.2%,41.7%,151%,103%,34%,59.9%,109%,195%,55.8%,106%,122%,154%,119%,52.1%,47.5%,112%,43.7%,36.7%,199%,
"COc1cc([C@@H]2c3cc4c(cc3[C@@H](O[C@@H]3O[C@@H]5CO[C@@H](C)O[C@H]5[C@H](O)[C@H]3O)[C@H]3COC(=O)[C@H]23)OCO4)cc(OC)c1O [etoposide] + C=C(c1ccc(C(=O)O)cc1)c1cc2c(cc1C)C(C)(C)CCC2(C)C [Bexarotene] (first compound 0.02 µM, partner dose 2 µM)",188%,82.5%,163%,26%,76.4%,103%,,102%,146%,147%,211%,56.9%,115%,132%,91.2%,190%,51.6%,35.4%,83.3%,66.8%
"COc1cc([C@@H]2c3cc4c(cc3[C@@H](O[C@@H]3O[C@@H]5CO[C@@H](C)O[C@H]5[C@H](O)[C@H]3O)[C@H]3COC(=O)[C@H]23)OCO4)cc(OC)c1O [etoposide] + NCC(=O)Nc1ccc(-n2nc(C(F)(F)F)cc2-c2ccc3c(ccc4ccccc43)c2)cc1 [OSU03012] (first compound 0.02 µM, partner dose 1 µM)",355%,86.6%,116%,6420%,144%,37.3%,80.5%,81.8%,147%,194%,110%,200%,,101%,58.6%,108%,101%,44.9%,148%,
"Cc1cc(Nc2cc(N3CCN(C)CC3)nc(Sc3ccc(NC(=O)C4CC4)cc3)n2)n[nH]1 [Tozasertib] + Nc1cccc2c1CN(C1CCC(=O)NC1=O)C2=O [lenalidomide] (first compound 0.006 µM, partner dose 1 µM)",122%,93.3%,243%,126%,89.6%,206%,,93.3%,89%,157%,68.6%,144%,158%,123%,43.1%,123%,320%,126%,60.8%,113%
"COc1cc([C@@H]2c3cc4c(cc3[C@@H](O[C@@H]3O[C@@H]5CO[C@@H](C)O[C@H]5[C@H](O)[C@H]3O)[C@H]3COC(=O)[C@H]23)OCO4)cc(OC)c1O [etoposide] + C=CCn1c(=O)c2cnc(Nc3ccc(N4CCN(C)CC4)cc3)nc2n1-c1cccc(C(C)(C)O)n1 [MK1775] (first compound 0.02 µM, partner dose 0.02 µM)",93.8%,256%,141%,246%,44.1%,161%,131%,32.4%,118%,,62.7%,140%,258%,88.1%,64.6%,187%,58.9%,64.5%,91.1%,
"CC[C@]1(O)C[C@H]2CN(CCc3c([nH]c4ccccc34)[C@@](C(=O)OC)(c3cc4c(cc3OC)N(C=O)[C@H]3[C@@](O)(C(=O)OC)[C@H](OC(C)=O)[C@]5(CC)C=CCN6CC[C@]43[C@@H]65)C2)C1 [vincristine] + Cc1cc(N2CCOCC2)cc2[nH]c(-c3c(NC[C@@H](O)c4cccc(Cl)c4)cc[nH]c3=O)nc12 [BMS536924] (first compound 0.0001 µM, partner dose 0.2 µM)",216%,125%,1540%,258%,322%,501%,198%,132%,75.7%,138%,59.8%,81.7%,259%,151%,141%,106%,50.7%,24.7%,64%,
"COc1cc([C@@H]2c3cc4c(cc3[C@@H](O[C@@H]3O[C@@H]5CO[C@@H](C)O[C@H]5[C@H](O)[C@H]3O)[C@H]3COC(=O)[C@H]23)OCO4)cc(OC)c1O [etoposide] + CC1(C)CCC(c2ccc(Cl)cc2)=C(CN2CCN(c3ccc(C(=O)NS(=O)(=O)c4ccc(N[C@H](CCN5CCOCC5)CSc5ccccc5)c(S(=O)(=O)C(F)(F)F)c4)cc3)CC2)C1 [ABT263] (first compound 0.02 µM, partner dose 0.4 µM)",131%,89.2%,84.5%,283%,162%,320%,,519%,195%,263%,399%,193%,50.7%,222%,87.2%,111%,429%,195%,83.3%,112%
"Cc1cn(-c2cc(NC(=O)c3ccc(C)c(Nc4nccc(-c5cccnc5)n4)c3)cc(C(F)(F)F)c2)cn1 [nilotinib] + O=C(CCCCCCC(=O)Nc1ccccc1)NO [vorinostat] (first compound 0.2 µM, partner dose 0.08 µM)",121%,265%,98.5%,70.5%,197%,68.7%,88.6%,93.7%,106%,89.9%,104%,66.1%,83.4%,127%,87.6%,99.6%,145%,308%,71.4%,
"CC[C@]1(O)C[C@H]2CN(CCc3c([nH]c4ccccc34)[C@@](C(=O)OC)(c3cc4c(cc3OC)N(C=O)[C@H]3[C@@](O)(C(=O)OC)[C@H](OC(C)=O)[C@]5(CC)C=CCN6CC[C@]43[C@@H]65)C2)C1 [vincristine] + Clc1ccc(Nc2nnc(Cc3ccncc3)c3ccccc23)cc1 [vatalanib] (first compound 0.0001 µM, partner dose 2 µM)",123%,67.9%,2570%,539%,360%,178%,,152%,186%,136%,111%,123%,140%,92.2%,60%,69.7%,129%,82.2%,104%,38.2%
"Cc1ccc(Nc2nccc(N(C)c3ccc4c(C)n(C)nc4c3)n2)cc1S(N)(=O)=O [Pazopanib] + CN1CCN(c2ccc3nc(-c4c(N)c5c(F)cccc5[nH]c4=O)[nH]c3c2)CC1 [Dovitinib] (first compound 0.4 µM, partner dose 0.1 µM)",130%,70.6%,158%,86.2%,78.9%,132%,,99.7%,83.9%,121%,89.9%,73.6%,46.1%,202%,135%,91.2%,170%,111%,58.9%,122%
"O=C(Nc1cc(C(F)(F)F)cc(C(F)(F)F)c1)c1cc(Cl)ccc1O + O=C(O)[C@@H]1[O][Sb](=[O])([O][Sb]2(=[O])[O][C@H]([C@H](O)CO)[C@H](O)[C@H](C(=O)O)[O]2)[O][C@H]([C@H](O)CO)[C@@H]1O [stibogluconate] (first compound 0.016 µM, partner dose 2 µM)",299%,84.9%,104%,115%,77.4%,52.7%,,205%,188%,136%,87.5%,62.7%,77.6%,94.2%,167%,150%,56.4%,49.9%,69.1%,123%

# 4 successive records already listed, quoted:
SMILES,cleaved PARP positive nuclei fraction [1],cleaved PARP positive nuclei fraction [2],cleaved PARP positive nuclei fraction [3],cleaved PARP positive nuclei fraction [4],cleaved PARP positive nuclei fraction [5],cleaved PARP positive nuclei fraction [6],cleaved PARP positive nuclei fraction [7],cleaved PARP positive nuclei fraction [8],cleaved PARP positive nuclei fraction [9],cleaved PARP positive nuclei fraction [10],cleaved PARP positive nuclei fraction [11],cleaved PARP positive nuclei fraction [12],cleaved PARP positive nuclei fraction [13],cleaved PARP positive nuclei fraction [14],cleaved PARP positive nuclei fraction [15],cleaved PARP positive nuclei fraction [16],cleaved PARP positive nuclei fraction [17],cleaved PARP positive nuclei fraction [18],cleaved PARP positive nuclei fraction [19],cleaved PARP positive nuclei fraction [20]
"Cc1ccc(Nc2nccc(N(C)c3ccc4c(C)n(C)nc4c3)n2)cc1S(N)(=O)=O [Pazopanib] + O=C(CCCCCCC(=O)Nc1ccccc1)NO [vorinostat] (first compound 0.4 µM, partner dose 0.08 µM)",73.8%,44.4%,85.3%,67.9%,47.6%,138%,83%,97%,104%,98%,70.9%,153%,110%,75.4%,54.4%,98.2%,74.8%,118%,150%,
"Cc1cc(Nc2cc(N3CCN(C)CC3)nc(Sc3ccc(NC(=O)C4CC4)cc3)n2)n[nH]1 [Tozasertib] + Cc1ccc(NC(=O)c2cccc(N(C)C)c2)cc1NC(=O)c1ccc(O)cc1 [ZM336372] (first compound 0.006 µM, partner dose 2 µM)",108%,40.2%,217%,214%,203%,161%,99.8%,110%,159%,102%,76.3%,182%,73.5%,52.4%,57%,204%,57.7%,78.2%,278%,
"Cc1cc(Nc2cc(N3CCN(C)CC3)nc(Sc3ccc(NC(=O)C4CC4)cc3)n2)n[nH]1 [Tozasertib] + COc1cc(Nc2ncc(F)c(Nc3ccc4c(n3)NC(=O)C(C)(C)O4)n2)cc(OC)c1OC [Tamatinib] (first compound 0.006 µM, partner dose 0.4 µM)",277%,26.1%,54.8%,212%,82.1%,252%,164%,88.5%,102%,115%,312%,67.9%,163%,177%,81.7%,113%,116%,99.6%,155%,
"Cc1ccc(Nc2nccc(N(C)c3ccc4c(C)n(C)nc4c3)n2)cc1S(N)(=O)=O [Pazopanib] + NC(=O)Nc1cc(-c2cccc(F)c2)sc1C(=O)N[C@H]1CCCNC1 [AZD7762] (first compound 0.4 µM, partner dose 0.02 µM)",83%,147%,91.6%,357%,104%,73.5%,95.9%,123%,99%,91.5%,157%,136%,72.6%,125%,35.9%,126%,176%,54%,117%,
